PubChem BioAssay AID602196 – INSERM – 2012
This is an unselected part of about 23,000 reagents. 455 of all reagents (2%) were called active. 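Active includes both protection and sensitisation; some change values fall well beyond the stated -50 to +50 range.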 Reagents against one gene are numbered here. Not all columns of the deposit are shown. Not given: the amount of reagent.

Test: 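Genes whose knock-down alters cisplatin killing of lung cancer cells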
Cell system: human A549 lung cancer cells
Knock-down reagent: siRNA pair against human genes
Timing: 48 h transfection before cisplatin; time from cisplatin to read-out not stated
Challenge: cisplatin at a dose killing half of control-siRNA cells; exact dose and duration not given
Detection: 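Shift in cisplatin death relative to control siRNA, from -50 (all cells die) to +50 (no cells die); siRNAs harmful on their own scored 0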
Scale: two-siRNA summed score (-2 to +2): higher = both siRNAs protect from cisplatin killing; -2 means both sensitise; mean protection from cisplatin (shift in death) and protection from cisplatin (shift in death), siRNA C: higher = protection from cisplatin killing
Hit rule: 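Each siRNA scores 0 if harmful alone by LDH or WST-1, otherwise +1 if it reduces and -1 if it increases cisplatin killing; a gene is active when both siRNAs agree (sum +2 or -2)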
Calls: active = both siRNAs shift cisplatin killing the same way; inactive = no consistent shift, or siRNA harmful alone

gene symbol | reagent no. | two-siRNA summed score (-2 to +2) | mean protection from cisplatin (shift in death) (%) | protection from cisplatin (shift in death), siRNA C (%) | outcome
WASHC4 | 1 | 1 | 10.4 | 7.6 | inactive
LOC442437 | 1 | 0 | 8.4 | 6.3 | inactive
ANAPC11 | 1 | 0 | -4.9 | 1.7 | inactive
LOC387770 | 1 | 0 | -4.4 | -6.1 | inactive
LOC441682 | 1 | 0 | 2.3 | 9.1 | inactive
RGS5 | 1 | -1 | -4 | -16.5 | inactive
TMED3 | 1 | 0 | -3 | 1 | inactive
NLN | 1 | 0 | -10.3 | -9.7 | inactive
RET | 1 | 0 | -2.5 | -8.3 | inactive
LOC402587 | 1 | 0 | 10.7 | 12.4 | inactive
SH3BGRL | 1 | 0 | 6.8 | -12.7 | inactive
BTNL2 | 1 | -2 | -34.5 | -31.4 | active
SLC39A11 | 1 | 1 | 14.3 | 14.7 | inactive
SENP6 | 1 | 0 | 5.5 | 2 | inactive
H2BP3 | 1 | 0 | 8.3 | 20.1 | inactive
ILRUN | 1 | 0 | 19.3 | 14.1 | inactive
IFT43 | 1 | -1 | -11.2 | -25 | inactive
EFNA3 | 1 | 0 | -2.7 | 4.8 | inactive
FBXL9P | 1 | 1 | 7.1 | 14.1 | inactive
RAB8B | 1 | 0 | -7.9 | 8.6 | inactive
HSPA1A | 1 | 0 | 11 | 17.6 | inactive
COL5A3 | 1 | 0 | 1.9 | 7.6 | inactive
ANG | 1 | 0 | 1 | 1.5 | inactive
SERPINB6 | 1 | 0 | 42.2 | -0.8 | inactive
LOC391137 | 1 | 0 | 8.6 | 6.7 | inactive
LOC390704 | 1 | 0 | 3.4 | 7.3 | inactive
CUTA | 1 | 0 | 12.8 | 15.6 | inactive
CUTA | 2 | 1 | 17.5 | 21.7 | inactive
PKP1 | 1 | 0 | -11.7 | 0.8 | inactive
VKORC1 | 1 | 1 | 15.6 | 23.7 | inactive
LOC440069 | 1 | 0 | -2.6 | -3.5 | inactive
CLCA3P | 1 | 0 | -0.7 | 11.3 | inactive
KIAA1729 | 1 | 1 | 18.7 | 15.8 | inactive
LYRM4 | 1 | -1 | 1.5 | 17.9 | inactive
ACTR6 | 1 | 0 | -2.7 | -8.2 | inactive
COL9A1 | 1 | -1 | -11.3 | -0.8 | inactive
AEN | 1 | 0 | -2.6 | -11.6 | inactive
FMNL2 | 1 | 0 | 5.6 | 4.4 | inactive
H4C6 | 1 | 0 | 0.8 | -8.4 | inactive
MYLIP | 1 | 0 | 12.8 | 23.3 | inactive
FOXB1 | 1 | 0 | -7.2 | -3.5 | inactive
LOC389668 | 1 | 0 | 9.4 | 10 | inactive
SLC25A16 | 1 | -1 | -4.8 | 12.4 | inactive
BTG1 | 1 | 0 | -9.8 | 3 | inactive
KCNA5 | 1 | -1 | -13.4 | -30.8 | inactive
AKAP12 | 1 | 0 | -6.5 | -11.9 | inactive
C8orf76 | 1 | 0 | 12.2 | 5.7 | inactive
LOC441668 | 1 | 1 | 9.3 | 22.5 | inactive
KLHL10 | 1 | 0 | 5.6 | 5.1 | inactive
LOC442776 | 1 | 0 | 7.8 | 3.3 | inactive
GML | 1 | 0 | 0.6 | -11.6 | inactive
EPB41L2 | 1 | 0 | 3.8 | -3.6 | inactive
PHYKPL | 1 | 0 | 27.2 | -6.9 | inactive
LOC389638 | 1 | 0 | -0.8 | -17.3 | inactive
COL24A1 | 1 | 0 | 5.2 | 5.4 | inactive
LOC388751 | 1 | 1 | 2.1 | -14.2 | inactive
PPM1L | 1 | 1 | 11.1 | -2.1 | inactive
